The list is a part of this screen's results and no random one: it is rich in T/C values a quarter to a half above the control, in often repeated tests (any T/C) and in doses without a T/C. Further doses and runs are listed elsewhere. T/C: endpoint of the treated group in % of that of the vehicle group. Some entries give survivors of the animals treated and no T/C: the source holds a T/C of zero for them, seemingly a mark for toxic or unscored doses. Some survivor counts are full or nearly so, which does not show that the dose was tolerated: survival well below the control is almost never listed, so the zero probably covers shortened survival too. Survivors were counted at the toxicity check, usually on the fifth day, unless a day is given; later deaths do not show. Schedules are NCI's codes, taken here to give the interval after Q, in days (D) or hours (H), and the number of doses after X. Some doses were run more than once; the values are given in rising order. Additions like (4×) stand for listed records that agree. Some schedule codes hold Z or #, which are not explained here. Where survival is the endpoint, the PubChem record calls one and a half times the control and up active, and a quarter to a half above the control has no call in these data; cut-offs in other NCI protocols can differ. Some T/C values carry the count of animals alive at the toxicity check (mostly the fifth day); where none is given, no animal had died by that day.
Test system: CD2F1 mice, L1210 leukemia ip, survival T/C
Assay: NCI In Vivo Anticancer Drug Screen. Data for tumor model L1210 Leukemia (intraperitoneal) in CD2F1 (CDF1) mice
Conditions: higher T/C = longer survival
In short: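 Activity against a transplanted murine tumor was judged by comparing the compound group with a vehicle group. The outcome in the treated animals was divided by that in the controls.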

[1] = T/C endpoint: mean survival time, dose: 32.0 mg/kg/injection, schedule: Q01DX001 (ip), vehicle: saline
[2] = T/C endpoint: median survival time, dose: 5.0 mg/kg/injection, schedule: Q01DX001 (ip), vehicle: Klucel (hydroxypropylcellulose) (HPC)

For N[C@@H](Cc1ccc(N(CCCl)CCCl)cc1)C(=O)O, the T/C (T/C endpoint: mean survival time, dose: 8.0 mg/kg/injection, schedule: Q04DX003 (ip), vehicle: saline, evaluated on day 5) was 383 % of control, the T/C (T/C endpoint: mean survival time, dose: 8.0 mg/kg/injection, schedule: Q04DX003 (ip), vehicle: saline, evaluated on day 30) was 108, 218, 223, 234 % of control and the T/C (T/C endpoint: mean survival time, dose: 8.0 mg/kg/injection, schedule: Q04DX003 (ip), vehicle: saline, evaluated on day 45) was 230 % of control. The T/C (T/C endpoint: mean survival time, dose: 8.0 mg/kg/injection, schedule: Q## X010 (ip), vehicle: saline) was 132 % of control, the T/C (T/C endpoint: mean survival time, dose: 8.0 mg/kg/injection, schedule: Q## X016 (oral), vehicle: saline) was 125 % of control and the T/C (T/C endpoint: mean survival time, dose: 10.0 mg/kg/injection, schedule: Q01DX001 (ip), vehicle: saline) was 139, 140, 215, 228, 325 % of control. For the same compound, the T/C (T/C endpoint: mean survival time, dose: 15.0 mg/kg/injection, schedule: Q01DX001 (ip), vehicle: saline) was 260, 288, 377, 426, 501 % of control, the survivor count (T/C endpoint: mean survival time, dose: 15.0 mg/kg/injection, schedule: Q01DX007 (ip), vehicle: saline with Tween-80) was 0 of 6 and the survivor count (T/C endpoint: mean survival time, dose: 15.0 mg/kg/injection, schedule: Q01DX009 (ip), vehicle: saline with Tween-80) was 0 of 6. The T/C (T/C endpoint: mean survival time, dose: 16.0 mg/kg/injection, schedule: Q01DX001 (ip), vehicle: Klucel (hydroxypropylcellulose) (HPC)) was 144 % of control, the T/C (T/C endpoint: mean survival time, dose: 16.0 mg/kg/injection, schedule: Q01DX001 (ip), vehicle: other) was 149 % of control and the T/C (T/C endpoint: mean survival time, dose: 16.0 mg/kg/injection, schedule: Q01DX001 (ip), vehicle: saline, evaluated on day 30) was 129, 150, 200, 288 % of control. For the same compound, the T/C (T/C endpoint: mean survival time, dose: 16.0 mg/kg/injection, schedule: Q01DX001 (ip), vehicle: saline, evaluated on day 45) was 245 % of control, the survivor count (T/C endpoint: mean survival time, dose: 16.0 mg/kg/injection, schedule: Q01DX005 (oral), vehicle: saline) was 8 of 10 and the survivor count (T/C endpoint: mean survival time, dose: 16.0 mg/kg/injection, schedule: Q01DX009 (ip), vehicle: Klucel (hydroxypropylcellulose) (HPC)) was 6 of 6. The survivor count (T/C endpoint: mean survival time, dose: 16.0 mg/kg/injection, schedule: Q01DX009 (ip), vehicle: saline) was 10 of 10 and 6 of 6 (2×), the T/C (T/C endpoint: mean survival time, dose: 16.0 mg/kg/injection, schedule: Q04DX003 (ip), vehicle: saline, evaluated on day 30) was 96 and 147 % of control and the T/C (T/C endpoint: mean survival time, dose: 16.0 mg/kg/injection, schedule: Q04DX003 (ip), vehicle: saline, evaluated on day 45) was 170 % of control. The survivor count (T/C endpoint: mean survival time, dose: 16.0 mg/kg/injection, schedule: Q04DX003 (ip), vehicle: saline) was 6 of 6, the survivor count (T/C endpoint: mean survival time, dose: 16.0 mg/kg/injection, schedule: Q## X010 (oral), vehicle: saline) was 10 of 10 and the survivor count (T/C endpoint: mean survival time, dose: 30.0 mg/kg/injection, schedule: Q01DX007 (ip), vehicle: saline with Tween-80) was 0 of 6. For the same compound, the survivor count (T/C endpoint: mean survival time, dose: 30.0 mg/kg/injection, schedule: Q01DX009 (ip), vehicle: saline with Tween-80) was 0 of 6, the survivor count (T/C endpoint: mean survival time, dose: 32.0 mg/kg/injection, schedule: Q01DX001 (ip), vehicle: DMSO) was 4 of 6 and the survivor count (T/C endpoint: mean survival time, dose: 32.0 mg/kg/injection, schedule: Q01DX001 (ip), vehicle: Klucel (hydroxypropylcellulose) (HPC)) was 4 of 6. For the same compound, the T/C [1] was 108 [5 of 6 alive], 139 [4 of 6 alive], 166 % of control, the survivor count [1] was 7 of 10 and 5 of 6 and the survivor count (T/C endpoint: mean survival time, dose: 32.0 mg/kg/injection, schedule: Q01DX009 (ip), vehicle: Klucel (hydroxypropylcellulose) (HPC)) was 4 of 6. The survivor count (T/C endpoint: mean survival time, dose: 32.0 mg/kg/injection, schedule: Q04DX003 (ip), vehicle: saline) was 3 of 6 and 7 of 10, the T/C (T/C endpoint: mean survival time, dose: 32.0 mg/kg/injection, schedule: Q## X016 (oral), vehicle: saline) was 145 % of control and the survivor count (T/C endpoint: mean survival time, dose: 64.0 mg/kg/injection, schedule: Q01DX001 (ip), vehicle: saline with Tween-80) was 1 of 6. The survivor count (T/C endpoint: mean survival time, dose: 64.0 mg/kg/injection, schedule: Q01DX001 (ip), vehicle: saline) was 0 of 10 and 2 of 6, the survivor count (T/C endpoint: mean survival time, dose: 128.0 mg/kg/injection, schedule: Q01DX001 (ip), vehicle: saline with Tween-80) was 0 of 6 and the survivor count (T/C endpoint: mean survival time, dose: 256.0 mg/kg/injection, schedule: Q01DX001 (ip), vehicle: saline with Tween-80) was 0 of 6. For the same compound, the T/C (T/C endpoint: median survival time, dose: 0.5 mg/kg/injection, schedule: Q01DX005 (ip), vehicle: saline) was 149 % of control, the T/C (T/C endpoint: median survival time, dose: 0.5 mg/kg/injection, schedule: Q01DX009 (ip), vehicle: saline) was 127 % of control and the T/C (T/C endpoint: median survival time, dose: 1.0 mg/kg/injection, schedule: Q01DX005 (ip), vehicle: saline) was 144 % of control. For the same compound, the T/C (T/C endpoint: median survival time, dose: 3.75 mg/kg/injection, schedule: Q01DX009 (ip), vehicle: saline) was 128 % of control, the T/C [2] was 137 % of control and the survivor count [2] was 4 of 6. For the same compound, the survivor count (T/C endpoint: median survival time, dose: 6.0 mg/kg/injection, schedule: Q04DX003 (ip), vehicle: Klucel (hydroxypropylcellulose) (HPC)) was 2 of 6, the T/C (T/C endpoint: median survival time, dose: 7.5 mg/kg/injection, schedule: Q01DX009 (ip), vehicle: saline) was 128 and 135 % of control and the survivor count (T/C endpoint: median survival time, dose: 10.0 mg/kg/injection, schedule: Q01DX001 (ip), vehicle: Klucel (hydroxypropylcellulose) (HPC)) was 0 of 6. The T/C (T/C endpoint: median survival time, dose: 10.0 mg/kg/injection, schedule: Q01DX001 (ip), vehicle: saline, evaluated on day 5) was 170 and 187 % of control, the T/C (T/C endpoint: median survival time, dose: 10.0 mg/kg/injection, schedule: Q01DX001 (ip), vehicle: saline, evaluated on day 30) was 182 % of control and the T/C (T/C endpoint: median survival time, dose: 10.0 mg/kg/injection, schedule: Q01DX001 (ip), vehicle: saline, evaluated on day 45) was 168, 182, 189 % of control. The T/C (T/C endpoint: median survival time, dose: 10.0 mg/kg/injection, schedule: Q01DX001 (ip), vehicle: saline, evaluated on day 60) was 154 and 185 % of control, the survivor count (T/C endpoint: median survival time, dose: 12.0 mg/kg/injection, schedule: Q04DX003 (ip), vehicle: Klucel (hydroxypropylcellulose) (HPC)) was 0 of 6 and the T/C (T/C endpoint: median survival time, dose: 15.0 mg/kg/injection, schedule: Q01DX001 (ip), vehicle: saline, evaluated on day 5) was 183 and 221 % of control. For the same compound, the T/C (T/C endpoint: median survival time, dose: 15.0 mg/kg/injection, schedule: Q01DX001 (ip), vehicle: saline, evaluated on day 30) was 195 and 370 % of control, the T/C (T/C endpoint: median survival time, dose: 15.0 mg/kg/injection, schedule: Q01DX001 (ip), vehicle: saline, evaluated on day 45) was 194, 198, 209, 226, 548 % of control and the T/C (T/C endpoint: median survival time, dose: 15.0 mg/kg/injection, schedule: Q01DX001 (ip), vehicle: saline, evaluated on day 60) was 178, 207, 216 % of control. For the same compound, the survivor count (T/C endpoint: median survival time, dose: 20.0 mg/kg/injection, schedule: Q01DX001 (ip), vehicle: Klucel (hydroxypropylcellulose) (HPC)) was 0 of 6 and 6 of 6, the T/C (T/C endpoint: median survival time, dose: 20.0 mg/kg/injection, schedule: Q01DX001 (ip), vehicle: saline, evaluated on day 30) was 344 % of control and the T/C (T/C endpoint: median survival time, dose: 20.0 mg/kg/injection, schedule: Q01DX001 (ip), vehicle: saline, evaluated on day 45) was 210, 523, 535, 548, 576 % of control. The T/C (T/C endpoint: median survival time, dose: 20.0 mg/kg/injection, schedule: Q01DX001 (ip), vehicle: saline, evaluated on day 60) was 414 % of control and the survivor count (T/C endpoint: median survival time, dose: 30.0 mg/kg/injection, schedule: Q01DX009 (ip), vehicle: saline) was 1 of 6 and 4 of 6.
